Results deposited as PubChem BioAssay AID743458 (Peter MacCallum Cancer Centre, 2014)
The whole screen tested about 1,800 reagents; shown is a random part of them. Over the whole deposit, 732 (41%) are marked active. 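Calls are per siRNA reagent; a gene was deemed confirmed only if most of its four siRNAs scored.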 Unmarked entries are inactive. The numbers tell different reagents against one gene apart. No sequences are given here.

Aim: 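Identify genes whose loss lifts vorinostat resistance in colon cancer cells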 (follow-up of hits)
Cell system: human HCT116-VR colon cancer cells made resistant to vorinostat
Reagent: single siRNA or pool against human genes, 25 nM per single siRNA
Time to read-out: about 72 h after transfection, including 24 h of drug
Conditions: vorinostat, 2.5 µM final, for 24 h
Detection: 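Cell viability by fluorescence and apoptosis by caspase 3/7 luminescence under vorinostat, background-corrected, averaged across two plate copies and given as fold change versus mock transfection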
Scale: viability relative to mock: higher = more living cells than mock; caspase activity relative to mock: higher = more apoptosis than mock
Rule for the call: 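Active means a reduced-viability or caspase-activation class, anything else inactive; classes could only be given to wells that looked healthy when left untreated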

| gene | reagent no. | viability relative to mock | caspase activity relative to mock | viability hit class | caspase hit class |
| --- | --- | --- | --- | --- | --- |
| GLI1 (GLI family zinc finger 1) | 1 | 0.84 (active) | 2.76 | no change | caspase activation |
| GLI1 (GLI family zinc finger 1) | 2 | 0.9 (active) | 2.79 | no change | caspase activation |
| GLI1 (GLI family zinc finger 1) | 3 | 0.5 (active) | 0.6 | reduced viability | no change |
| GLI1 (GLI family zinc finger 1) | 4 | 0.74 (active) | 3.31 | no change | caspase activation |
| ALYREF (Aly/REF export factor) | 1 | 0.63 (active) | 5.15 | no change | caspase activation |
| ALYREF (Aly/REF export factor) | 2 | 0.56 (active) | 2.52 | reduced viability | no change |
| ALYREF (Aly/REF export factor) | 3 | 0.81 | 1.31 | no change | no change |
| ALYREF (Aly/REF export factor) | 4 | 0.72 | 1.54 | no change | no change |
| INTS2 (integrator complex subunit 2) | 1 | 0.74 (active) | 4.71 | no change | caspase activation |
| INTS2 (integrator complex subunit 2) | 2 | 0.72 | 1.37 | no change | no change |
| INTS2 (integrator complex subunit 2) | 3 | 0.88 (active) | 3.39 | no change | caspase activation |
| INTS2 (integrator complex subunit 2) | 4 | 0.88 | 1.8 | no change | no change |
| FMC1 (formation of mitochondrial complex V assembly factor 1) | 1 | 0.3 (active) | 3.33 | reduced viability | caspase activation |
| FMC1 (formation of mitochondrial complex V assembly factor 1) | 2 | 0.24 | 3.8 | no change | no change |
| FMC1 (formation of mitochondrial complex V assembly factor 1) | 3 | 0.4 (active) | 3.58 | reduced viability | caspase activation |
| FMC1 (formation of mitochondrial complex V assembly factor 1) | 4 | 0.94 | 0.9 | no change | no change |
| NUP58 (nucleoporin 58) | 1 | 0.41 (active) | 1.86 | reduced viability | no change |
| NUP58 (nucleoporin 58) | 2 | 0.49 (active) | 3.36 | reduced viability | caspase activation |
| NUP58 (nucleoporin 58) | 3 | 0.52 (active) | 3.58 | reduced viability | caspase activation |
| NUP58 (nucleoporin 58) | 4 | 0.55 (active) | 3.05 | reduced viability | caspase activation |
| CMTM1 (CKLF like MARVEL transmembrane domain containing 1) | 1 | 0.66 (active) | 3.24 | no change | caspase activation |
| CMTM1 (CKLF like MARVEL transmembrane domain containing 1) | 2 | 0.82 | 1.57 | no change | no change |
| CMTM1 (CKLF like MARVEL transmembrane domain containing 1) | 3 | 0.57 (active) | 4 | no change | caspase activation |
| CMTM1 (CKLF like MARVEL transmembrane domain containing 1) | 4 | 0.86 | 1.25 | no change | no change |
| ZNF646 (zinc finger protein 646) | 1 | 0.66 | 3.19 | no change | no change |
| ZNF646 (zinc finger protein 646) | 2 | 1.01 | 1.31 | no change | no change |
| ZNF646 (zinc finger protein 646) | 3 | 0.94 | 1.13 | no change | no change |
| ZNF646 (zinc finger protein 646) | 4 | 0.98 | 1.18 | no change | no change |
| TAC4 (tachykinin precursor 4) | 1 | 1.02 (active) | 2.79 | no change | caspase activation |
| TAC4 (tachykinin precursor 4) | 2 | 0.9 | 1.22 | no change | no change |
| TAC4 (tachykinin precursor 4) | 3 | 0.8 | 1.35 | no change | no change |
| TAC4 (tachykinin precursor 4) | 4 | 0.52 (active) | 4.58 | reduced viability | caspase activation |
| CDK14 (cyclin dependent kinase 14) | 1 | 0.84 | 1.17 | no change | no change |
| CDK14 (cyclin dependent kinase 14) | 2 | 0.9 | 1.64 | no change | no change |
| CDK14 (cyclin dependent kinase 14) | 3 | 0.78 | 1.99 | no change | no change |
| CDK14 (cyclin dependent kinase 14) | 4 | 0.52 (active) | 3.21 | reduced viability | caspase activation |
| MED26 (mediator complex subunit 26) | 1 | 0.32 (active) | 3.41 | reduced viability | caspase activation |
| MED26 (mediator complex subunit 26) | 2 | 0.3 (active) | 4.34 | reduced viability | caspase activation |
| MED26 (mediator complex subunit 26) | 3 | 0.6 | 2.53 | no change | no change |
| MED26 (mediator complex subunit 26) | 4 | 0.52 (active) | 5.06 | reduced viability | caspase activation |
| RPLP2 (ribosomal protein lateral stalk subunit P2) | 1 | 0.4 (active) | 1.19 | reduced viability | no change |
| RPLP2 (ribosomal protein lateral stalk subunit P2) | 2 | 0.2 | 2.46 | no change | no change |
| RPLP2 (ribosomal protein lateral stalk subunit P2) | 3 | 0.22 (active) | 1.54 | reduced viability | no change |
| RPLP2 (ribosomal protein lateral stalk subunit P2) | 4 | 0.37 (active) | 0.86 | reduced viability | no change |
| KIF12 (kinesin family member 12) | 1 | 0.26 | 2.17 | no change | no change |
| KIF12 (kinesin family member 12) | 2 | 0.7 (active) | 3.6 | no change | caspase activation |
| KIF12 (kinesin family member 12) | 3 | 0.84 | 1.86 | no change | no change |
| KIF12 (kinesin family member 12) | 4 | 0.94 | 1.38 | no change | no change |
| LAMTOR2 (late endosomal/lysosomal adaptor, MAPK and MTOR activator 2) | 1 | 0.97 | 1.62 | no change | no change |
| LAMTOR2 (late endosomal/lysosomal adaptor, MAPK and MTOR activator 2) | 2 | 0.44 (active) | 0.68 | reduced viability | no change |
| LAMTOR2 (late endosomal/lysosomal adaptor, MAPK and MTOR activator 2) | 3 | 0.76 | 0.6 | no change | no change |
| LAMTOR2 (late endosomal/lysosomal adaptor, MAPK and MTOR activator 2) | 4 | 0.15 (active) | 2.77 | reduced viability | caspase activation |
| RERE (arginine-glutamic acid dipeptide repeats) | 1 | 0.46 (active) | 6.44 | reduced viability | caspase activation |
| RERE (arginine-glutamic acid dipeptide repeats) | 2 | 1.13 | 1.19 | no change | no change |
| RERE (arginine-glutamic acid dipeptide repeats) | 3 | 0.38 (active) | 4.41 | reduced viability | caspase activation |
| RERE (arginine-glutamic acid dipeptide repeats) | 4 | 0.42 (active) | 1.96 | reduced viability | no change |
| ZNF497 (zinc finger protein 497) | 1 | 0.88 (active) | 3.37 | no change | caspase activation |
| ZNF497 (zinc finger protein 497) | 2 | 0.74 | 2 | no change | no change |
| ZNF497 (zinc finger protein 497) | 3 | 1.11 | 1.7 | no change | no change |
| ZNF497 (zinc finger protein 497) | 4 | 0.3 (active) | 3.03 | reduced viability | caspase activation |
